According to PMC3470570:
These are yes or no findings as the source states them, for the method shown. Binding seen in cells or lysates may run through a third protein.

Chains of the proteins cited; added tags and fusions are not shown.
UniProt Q13309: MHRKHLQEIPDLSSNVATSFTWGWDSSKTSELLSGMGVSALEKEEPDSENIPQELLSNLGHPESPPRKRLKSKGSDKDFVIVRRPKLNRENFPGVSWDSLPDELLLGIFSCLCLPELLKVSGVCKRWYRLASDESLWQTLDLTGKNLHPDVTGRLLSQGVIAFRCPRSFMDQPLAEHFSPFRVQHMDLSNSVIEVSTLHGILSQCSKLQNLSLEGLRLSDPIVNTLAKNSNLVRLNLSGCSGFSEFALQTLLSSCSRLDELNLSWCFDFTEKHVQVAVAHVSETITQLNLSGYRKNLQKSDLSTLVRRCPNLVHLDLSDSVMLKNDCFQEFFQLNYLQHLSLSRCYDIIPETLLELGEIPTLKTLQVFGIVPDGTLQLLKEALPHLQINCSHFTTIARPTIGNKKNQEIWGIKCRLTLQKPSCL
UniProt Q969H0: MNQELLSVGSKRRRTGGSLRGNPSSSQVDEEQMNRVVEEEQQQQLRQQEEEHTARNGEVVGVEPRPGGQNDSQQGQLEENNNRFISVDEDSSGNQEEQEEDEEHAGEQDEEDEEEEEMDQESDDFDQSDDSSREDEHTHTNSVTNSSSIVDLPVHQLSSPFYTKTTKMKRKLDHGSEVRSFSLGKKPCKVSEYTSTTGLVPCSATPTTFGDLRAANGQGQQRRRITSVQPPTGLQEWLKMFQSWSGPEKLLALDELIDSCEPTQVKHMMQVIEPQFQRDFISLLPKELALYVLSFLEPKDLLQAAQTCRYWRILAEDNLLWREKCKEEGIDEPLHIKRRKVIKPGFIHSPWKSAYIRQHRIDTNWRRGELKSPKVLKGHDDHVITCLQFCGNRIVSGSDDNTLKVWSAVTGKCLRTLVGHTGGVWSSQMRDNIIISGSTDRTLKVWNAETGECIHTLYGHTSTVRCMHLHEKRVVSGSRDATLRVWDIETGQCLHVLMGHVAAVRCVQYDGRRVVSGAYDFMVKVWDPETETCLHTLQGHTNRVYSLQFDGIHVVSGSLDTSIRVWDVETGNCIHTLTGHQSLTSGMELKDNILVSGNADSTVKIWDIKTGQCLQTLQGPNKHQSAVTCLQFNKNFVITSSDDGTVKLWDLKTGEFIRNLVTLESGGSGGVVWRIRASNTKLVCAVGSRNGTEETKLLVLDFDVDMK

Biological target: bacterially expressed GST-Skp2 (UniProt Q13309)
Test: pull-down; bacterially expressed GST-Skp2 (or GST) immobilized onto glutathione beads, incubated with lysates of LNCaP cells transfected with β-TrCP-Myc or Fbw7-Myc; blot with anti-Myc; Fig. 5D; only the target purified

binding: no binding
Substance: Myc-tagged Fbw7 (from UniProt Q969H0 1-707)
